# Measurements: patent US20240383993A1
# Chains of the proteins cited; added tags and fusions are not shown. Lines headed by an entry give the natural chain unless they say otherwise; changes in a name come on top. A line that says so, or that is headed by a name, gives the form on record, which may keep a tag or linker. Residues count along the entry.
# UniProt A9YYE7: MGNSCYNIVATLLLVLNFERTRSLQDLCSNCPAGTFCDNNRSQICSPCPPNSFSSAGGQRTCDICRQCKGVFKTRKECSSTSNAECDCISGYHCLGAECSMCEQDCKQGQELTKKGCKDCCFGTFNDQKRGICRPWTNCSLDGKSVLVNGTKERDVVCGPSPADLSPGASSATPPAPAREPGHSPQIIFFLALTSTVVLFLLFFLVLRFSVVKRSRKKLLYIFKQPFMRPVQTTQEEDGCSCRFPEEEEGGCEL
# cynomolgus 4-1BB overexpressed on CHO-K1 cells: residues 24-254 of A9YYE7
# His-tagged cynomolgus 4-1BB protein: residues 24-186 of A9YYE7
# Results are given in words; binding and its absence hold for the method and conditions named. Some results given as binding are weak or reduced against the parent protein; the word gives no strength.
# B1: VV02-2LP-13 (Fc fusion, not shown: a dimerising Fc or GST; small tags and cut ends)
# VHH: AVQLVESGGGLVQPGGSLRLSCAASGFTFSSYAMSWARQVPGKGFEWVAYIYSDGSTYYADSVKGRFTISRDNAKDTVYLHMNSLKFEDMAVYYCATWRSQQVGRWDEYDHWGQGTQVTVSS
# B2: VV02-3LP-142 (Fc fusion, not shown: a dimerising Fc or GST; small tags and cut ends)
# VHH: AVQLVESGGGLVQRGGSLKLSCVGSGFDFSDHAMSWARQVPGKGFEWVAYIYSDGSTYYADSVKGRFTISRDNAKDTVYLHMNSLKFEDMAVYYCATWRSQQVGRWDEYDHWGQGTQVTVSS
# B3: VV02-3LP-83 (Fc fusion, not shown: a dimerising Fc or GST; small tags and cut ends)
# VHH: EVDLVESGGGLVQPGGSLRLSCAASGFTFRSYAMSWARQVPGKGFEWVAYIYSDGSTYYADSVKGRFTISRDNAKDTVYLHMNSLKFEDMAVYYCATWRSQQVGRWDEYDHWGQGTQVTVSS
# B4: VV02-1LP-422 (Fc fusion, not shown: a dimerising Fc or GST; small tags and cut ends)
# VHH: QLQLVESGGGLVQPGGSLRLSCAASGFTLADYAIGWFRQAPGKEREGVLCISSSGDVTIYADSVKGRFTISRDNAKNTVYLQMNSLKPEDTAVYYCVAPRICSTYSSDDYWGQGTQVTVSS
# B5: VV02-1LP-238 (Fc fusion, not shown: a dimerising Fc or GST; small tags and cut ends)
# VHH: QVQLVESGGGLVQAGGALRLSCAASGFTLDYSAIGWFRQAPGKEREGVLCISSSGDVTIYADSVKGRFTISRDNAKNTVYLQMNSLKPEDTAVYYCVAPRICSTYSSDDYWGQGTQVTVSS
# B6: VV02-1SP (1)-168 (Fc fusion, not shown: a dimerising Fc or GST; small tags and cut ends)
# VHH: QVQLVESGGGLVQPGGSLRLSCAASGFTFSSYAMSWARQAPGKDFEWVSYIYSDGNTYYADSVKGRFTISRDNAKNTVYLQMNSLKPEDTAVYYCATWHTLRVGVWDEYDYWGQGTQVTVSS
# B7: VV02-1SP (1)-55 (Fc fusion, not shown: a dimerising Fc or GST; small tags and cut ends)
# VHH: EVQLVESGGGLVQPGGSLRLSCAASGFTFSSSAMSWARQVPGKGFEWVAYIYSDGSTYYADSVKGRFTISRDNAKDTVYLHMNSLKFEDMAVYYCATWRSQQVGRWDEYDYWGQGIQVTVSS
# B8: VV02-1SP (1)-73 (Fc fusion, not shown: a dimerising Fc or GST; small tags and cut ends)
# VHH: EVDLVESGGGLVQPGGSLRLSCAVSGFTFSNSAMSWARQAPGKEFEWVSSIYSDGKTYYVDSVKGRFTISRDNAKNTVYLQMSSLKPEDTAVYYCATWKTLRVGVWDESDYWGQGTQVTVSS
# B9: VV02-1SP (1)-358 (Fc fusion, not shown: a dimerising Fc or GST; small tags and cut ends)
# VHH: EVQLVESGGGLVQPGGSLMISCAASGFTFSSSAMSWARQVPGKGFEWVAYIYSDGSTYYADSVKGRFTISRDNAKDTVYLHMNSLKFEDMAVYYCATWRSQQVGRWDKYDYWGQGTQVTVSS
# B10: VV02-1LP-263 huNb_1_2 (Fc fusion, not shown: a dimerising Fc or GST)
# VHH: EVQLLESGGGLVQPGGSLRLSCAASGFTFSSSAMSWARQAPGKGLEWVSGIYSGGSTYYTESVKDRFTISRDNSKNTVYLQMNSLKPEDTAVYYCATWGTLRFGVWAEYDHWGQGTLVTVSS
# B11: VV02-1LP-263 huNb_1_3 (Fc fusion, not shown: a dimerising Fc or GST)
# VHH: EVQLLESGGGLVQPGGSLRLSCAASGFTFSSSAMSWARQTPGKGFEWVSGIYSGGSTYYTESVKDRFTISRDNSKNTVYLQMNSLKPEDTAVYYCATWGTLRFGVWAEYDHWGQGTQVTVSS
# B12: VV02-1LP-263 huNb_2_2 (Fc fusion, not shown: a dimerising Fc or GST)
# VHH: EVQLVESGGGLVQPGGSLRLSCAASGFTFSSSAMSWARQAPGKGLEWVSGIYSGGSTYYTESVKDRFTISRDNAKNTLYLQMNSLRPEDTAVYYCATWGTLRFGVWAEYDHWGQGTLVTVSS
# B13: VV02-1LP-263 huNb_2_3 (Fc fusion, not shown: a dimerising Fc or GST)
# VHH: EVQLVESGGGLVQPGGSLRLSCAASGFTFSSSAMSWARQAPGKGFEWVSGIYSGGSTYYTESVKDRFTISRDNAKNTVYLQMNSLKPEDTAVYYCATWGTLRFGVWAEYDHWGQGTLVTVSS
# B14: VV02-1LP-263 huNb_3_2 (Fc fusion, not shown: a dimerising Fc or GST)
# VHH: QVQLVESGGGLVKPGGSLRLSCAASGFTFSSSAMSWARQAPGKGFEWVSGIYSGGSTYYTESVKDRFTISRDNAKNSLYLQMNSLRPEDTAVYYCATWGTLRFGVWAEYDHWGQGTQVTVSS
# B15: VV02-1LP-263 huNb_3_3 (Fc fusion, not shown: a dimerising Fc or GST)
# VHH: QVQLVESGGGLVQPGGSLRLSCAASGFTFSSSAMSWARQAPGKGFEWVSGIYSGGSTYYTESVKDRFTISRDNAKNSVYLQMNSLKPEDTAVYYCATWGTLRFGVWAEYDHWGQGTQVTVSS
# B16: VV02-1LP-317 (Fc fusion, not shown: a dimerising Fc or GST; small tags and cut ends)
# VHH: EVDLVESGGGLVQPGGSLRLSCAASGFTFSRSAMSWARQAPGKGFEWVSGIYSGGSTYYVDSVEGRFTISRDNAKNTVYLQMNSLKPEDTAVYYCATWGSQQIGVWHEDDYWGQGTQVTVSS
# B17: VV02-1LP-263 (Fc fusion, not shown: a dimerising Fc or GST; small tags and cut ends)
# VHH: EVQLVESGGGLVQPGGSLRLSCAASGFTFSSSAMSWARQTPGKGFEWVSGIYSDGSTYYTDSVKDRFTISRDNAKNTVYLQMNSLKPEDTAVYYCATWGTLRFGVWAEYDHWGQGTQVTVSS
# Key:
# [1] = target: His-tagged cynomolgus 4-1BB protein (cynomolgus) (UniProt A9YYE7); experiment: ELISA (FIG. 1A-B)
# [2] = target: cynomolgus 4-1BB overexpressed on CHO-K1 cells (cynomolgus) (UniProt A9YYE7); experiment: flow cytometry on CHO-K1 cells overexpressing 4-1BB
# [3] = target: cynomolgus 4-1BB overexpressed on CHO-K1 cells (cynomolgus) (UniProt A9YYE7); experiment: flow cytometry (FIG. 4A-B)
Binder,binding [1],binding [2],binding [3]
B1,binds,,
B2,binds,,
B3,binds,,
B4,binds,,
B5,binds,,
B6,binds,,
B7,binds,,
B8,binds,,
B9,binds,,
B10,,binds,binds
B11,,binds,binds
B12,,binds,binds
B13,,binds,binds
B14,,binds,binds
B15,,binds,binds
B16,binds,,
B17,binds,,
